# Measurements reported in article PMC6338772.
# Sequences of proteins named here, by UniProt entry; tags and fusion partners are left off.
# UniProt P70338: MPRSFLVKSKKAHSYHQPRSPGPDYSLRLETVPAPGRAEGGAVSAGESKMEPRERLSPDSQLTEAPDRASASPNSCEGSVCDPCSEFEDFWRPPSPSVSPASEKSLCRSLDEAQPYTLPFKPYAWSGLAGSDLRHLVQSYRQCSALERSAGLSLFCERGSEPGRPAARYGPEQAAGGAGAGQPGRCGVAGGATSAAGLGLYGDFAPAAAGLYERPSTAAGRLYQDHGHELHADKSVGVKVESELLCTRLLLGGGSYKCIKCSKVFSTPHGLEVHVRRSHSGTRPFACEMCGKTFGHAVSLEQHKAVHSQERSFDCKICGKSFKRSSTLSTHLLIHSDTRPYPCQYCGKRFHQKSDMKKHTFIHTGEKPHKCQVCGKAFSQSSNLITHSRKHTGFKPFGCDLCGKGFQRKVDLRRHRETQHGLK
# UniProt Q8CFE3: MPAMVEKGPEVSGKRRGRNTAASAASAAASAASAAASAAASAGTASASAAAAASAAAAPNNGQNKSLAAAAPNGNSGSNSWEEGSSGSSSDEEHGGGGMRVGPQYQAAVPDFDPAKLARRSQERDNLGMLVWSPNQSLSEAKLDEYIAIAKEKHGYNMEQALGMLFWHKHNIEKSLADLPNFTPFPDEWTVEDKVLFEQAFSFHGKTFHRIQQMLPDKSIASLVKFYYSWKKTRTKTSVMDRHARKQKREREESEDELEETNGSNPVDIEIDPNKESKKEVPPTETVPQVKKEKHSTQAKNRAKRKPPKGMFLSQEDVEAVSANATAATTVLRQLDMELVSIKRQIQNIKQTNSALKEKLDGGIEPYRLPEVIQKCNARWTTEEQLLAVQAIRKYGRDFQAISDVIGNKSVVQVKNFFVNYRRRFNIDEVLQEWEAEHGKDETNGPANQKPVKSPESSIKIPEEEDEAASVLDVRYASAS
# UniProt O09106: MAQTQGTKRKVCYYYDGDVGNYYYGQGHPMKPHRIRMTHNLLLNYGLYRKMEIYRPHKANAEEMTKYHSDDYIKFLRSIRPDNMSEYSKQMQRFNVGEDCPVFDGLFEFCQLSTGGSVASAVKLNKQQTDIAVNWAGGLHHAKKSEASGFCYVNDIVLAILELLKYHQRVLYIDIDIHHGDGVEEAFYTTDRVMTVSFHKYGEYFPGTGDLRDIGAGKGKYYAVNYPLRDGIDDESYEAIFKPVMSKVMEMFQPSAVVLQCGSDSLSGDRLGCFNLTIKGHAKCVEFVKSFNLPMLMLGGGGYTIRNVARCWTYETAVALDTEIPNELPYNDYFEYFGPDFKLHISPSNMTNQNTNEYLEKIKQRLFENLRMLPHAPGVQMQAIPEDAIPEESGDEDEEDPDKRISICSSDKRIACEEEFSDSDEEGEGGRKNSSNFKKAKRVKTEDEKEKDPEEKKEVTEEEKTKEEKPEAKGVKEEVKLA
# UniProt P70288: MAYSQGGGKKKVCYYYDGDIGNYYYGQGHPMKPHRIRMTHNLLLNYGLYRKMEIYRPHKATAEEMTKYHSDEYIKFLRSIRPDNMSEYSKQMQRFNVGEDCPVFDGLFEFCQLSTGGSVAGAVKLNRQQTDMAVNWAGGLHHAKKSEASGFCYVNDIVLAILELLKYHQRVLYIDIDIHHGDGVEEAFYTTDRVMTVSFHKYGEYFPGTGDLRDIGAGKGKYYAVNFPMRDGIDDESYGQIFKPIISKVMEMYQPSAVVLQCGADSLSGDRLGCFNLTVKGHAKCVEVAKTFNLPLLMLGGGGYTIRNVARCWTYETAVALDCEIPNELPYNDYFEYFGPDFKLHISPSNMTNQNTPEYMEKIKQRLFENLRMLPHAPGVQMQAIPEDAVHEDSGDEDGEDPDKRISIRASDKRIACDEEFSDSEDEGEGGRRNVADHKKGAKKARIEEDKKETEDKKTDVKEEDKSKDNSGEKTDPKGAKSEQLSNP
# Results are given in words; binding and its absence hold for the method and conditions named. Binding seen in cells or lysates may run through a third protein. Some entries that bind do so weakly or less than the wild type.
# Legend:
# [1] = target: Gfi1 (growth factor independent 1) (UniProt P70338); test: co-IP; MG tumor cell lysates (150 mM NaCl, 20 mM Tris, 1% Triton X-100, protease inhibitors), precleared; immunoprecipitation with antibodies to Gfi1, Lsd1 or CoREST or isotype control, Protein G beads; Western blot
# [2] = target: corepressor CoREST (mouse (endogenous in MG tumor cells)) (UniProt Q8CFE3); test: as above
binding [1],binding [2],Substance
no binding,,histone deacetylase HDAC1 (from UniProt O09106 1-482) (enzyme)
no binding,,histone deacetylase HDAC2 (from UniProt P70288 1-488) (enzyme)
,binds,Gfi1 (growth factor independent 1) (from UniProt P70338 1-423)
